Laboratory results: patent US20250283871A1, “COMPOSITIONS AND METHODS FOR MODULATING THE INTERACTION BETWEEN SS18-SSX FUSION ONCOPROTEIN AND NUCLEOSOMES” (Dana-Farber Cancer Institute, Inc., priority 2020, published 2025)

B1: LUC7L3 (protein, UniProt O95232 1-432, looked up)
Luc7-like protein 3: MISAAQLLDELMGRDRNLAPDEKRSNVRWDHESVCKYYLCGFCPAELFTNTRSDLGPCEKIHDENLRKQYEKSSRFMKVGYERDFLRYLQSLLAEVERRIRRGHARLALSQNQQSSGAAGPTGKNEEKIQVLTDKIDVLLQQIEELGSEGKVEEAQGMMKLVEQLKEERELLRSTTSTIESFAAQEKQMEVCEVCGAFLIVGDAQSRVDDHLMGKQHMGYAKIKATVEELKEKLRKRTEEPDRDERLKKEKQEREEREKEREREREERERKRRREEEEREKERARDRERRKRSRSRSRHSSRTSDRRCSRSRDHKRSRSRERRRSRSRDRRRSRSHDRSERKHRSRSRDRRRSKSRDRKSYKHRSKSRDREQDRKSKEKEKRGSDDKKSSVKSGSREKQSEDTNTESKESDTKNEVNGTSEDIKSEGDTQSN
B2: IGHA1 (protein, UniProt P01876 1-398, looked up)
Immunoglobulin heavy constant …: ASPTSPKVFPLSLCSTQPDGNVVIACLVQGFFPQEPLSVTWSESGQGVTARNFPPSQDASGDLYTTSSQLTLPATQCLAGKSVTCHVKHYTNPSQDVTVPCPVPSTPPTPSPSTPPTPSPSCCHPRLSLHRPALEDLLLGSEANLTCTLTGLRDASGVTFTWTPSSGKSAVQGPPERDLCGCYSVSSVLPGCAEPWNHGKTFTCTAAYPESKTPLTATLSKSGNTFRPEVHLLPPPSEELALNELVTLTCLARGFSPKDVLVRWLQGSQELPREKYLTWASRQEPSQGTTTFAVTSILRVAAEDWKKGDTFSCMVGHEALPLAFTQKTIDRLADWQMPPPYVVLDLPQETLEEETPGANLWPTTITFLTLFLLSLFYSTALTVTSVRGPSGNREGPQY
B3: CECR2 (protein, UniProt Q9BXF3 1-1484, looked up)
Chromatin remodeling …: MCPEEGGAAGLGELRSWWEVPAIAHFCSLFRTAFRLPDFEIEELEAALHRDDVEFISDLIACLLQGCYQRRDITPQTFHSYLEDIINYRWELEEGKPNPLREASFQDLPLRTRVEILHRLCDYRLDADDVFDLLKGLDADSLRVEPLGEDNSGALYWYFYGTRMYKEDPVQGKSNGELSLSRESEGQKNVSSIPGKTGKRRGRPPKRKKLQEEILLSEKQEENSLASEPQTRHGSQGPGQGTWWLLCQTEEEWRQVTESFRERTSLRERQLYKLLSEDFLPEICNMIAQKGKRPQRTKAELHPRWMSDHLSIKPVKQEETPVLTRIEKQKRKEEEEERQILLAVQKKEQEQMLKEERKRELEEKVKAVEGMCSVRVVWRGACLSTSRPVDRAKRRKLREERAWLLAQGKELPPELSHLDPNSPMREEKKTKDLFELDDDFTAMYKVLDVVKAHKDSWPFLEPVDESYAPNYYQIIKAPMDISSMEKKLNGGLYCTKEEFVNDMKTMFRNCRKYNGESSEYTKMSDNLERCFHRAMMKHFPGEDGDTDEEFWIREDEKREKRRSRAGRSGGSHVWTRSRDPEGSSRKQQPMENGGKSLPPTRRAPSSGDDQSSSSTQPPREVGTSNGRGFSHPLHCGGTPSQAPFLNQMRPAVPGTFGPLRGSDPATLYGSSGVPEPHPGEPVQQRQPFTMQPPVGINSLRGPRLGTPEEKQMCGGLTHLSNMGPHPGSLQLGQISGPSQDGSMYAPAQFQPGFIPPRHGGAPARPPDFPESSEIPPSHMYRSYKYLNRVHSAVWNGNHGATNQGPLGPDEKPHLGPGPSHQPRTLGHVMDSRVMRPPVPPNQWTEQSGFLPHGVPSSGYMRPPCKSAGHRLQPPPVPAPSSLFGAPAQALRGVQGGDSMMDSPEMIAMQQLSSRVCPPGVPYHPHQPAHPRLPGPFPQVAHPMSVTVSAPKPALGNPGRAPENSEAQEPENDQAEPLPGLEEKPPGVGTSEGVYLTQLPHPTPPLQTDCTRQSSPQERETVGPELKSSSSESADNCKAMKGKNPWPSDSSYPGPAAQGCVRDLSTVADRGALSENGVIGEASPCGSEGKGLGSSGSEKLLCPRGRTLQETMPCTGQNAATPPSTDPGLTGGTVSQFPPLYMPGLEYPNSAAHYHISPGLQGVGPVMGGKSPASHPQHFPPRGFQSNHPHSGGFPRYRPPQGMRYSYHPPPQPSYHHYQRTPYYACPQSFSDWQRPLHPQGSPSGPPASQPPPPRSLFSDKNAMASLQGCETLNAALTSPTRMDAVAAKVPNDGQNPGPEEEKLDESMERPESPKEFLDLDNHNAATKRQSSLSASEYLYGTPPPLSSGMGFGSSAFPPHSVMLQTGPPYTPQRPASHFQPRAYSSPVAALPPHHPGATQPNGLSQEGPIYRCQEEGLGHFQAVMMEQIGTRSGIRGPFQEMYRPSGMQMHPVQSQASFPKTPTAATSQEEVPPHKPPTLPLDQS
B4: SSR3 (protein, UniProt Q9UNL2 1-185, looked up)
Translocon-associated protein …: MAPKGSSKQQSEEDLLLQDFSRNLSAKSSALFFGNAFIVSAIPIWLYWRIWHMDLIQSAVLYSVMTLVSTYLVAFAYKNVKFVLKHKVAQKREDAVSKEVTRKLSEADNRKMSRKEKDERILWKKNEVADYEATTFSIFYNNTLFLVVVIVASFFILKNFNPTVNYILSISASSGLIALLSTGSK
B5: ABT1 (protein, UniProt Q9ULW3 1-272, looked up)
Activator of basal …: MEAEESEKAATEQEPLEGTEQTLDAEEEQEESEEAACGSKKRVVPGIVYLGHIPPRFRPLHVRNLLSAYGEVGRVFFQAEDRFVRRKKKAAAAAGGKKRSYTKDYTEGWVEFRDKRIAKRVAASLHNTPMGARRRSPFRYDLWNLKYLHRFTWSHLSEHLAFERQVRRQRLRAEVAQAKRETDFYLQSVERGQRFLAADGDPARPDGSWTFAQRPTEQELRARKAARPGGRERARLATAQDKARSNKGLLARIFGAPPPSESMEGPSLVRDS
B6: GGCT (protein, UniProt O75223 1-188, looked up)
Gamma-glutamylcyclotransferase: MANSGCKDVTGPDEESFLYFAYGSNLLTERIHLRNPSAAFFCVARLQDFKLDFGNSQGKTSQTWHGGIATIFQSPGDEVWGVVWKMNKSNLNSLDEQEGVKSGMYVVIEVKVATQEGKEITCRSYLMTNYESAPPSPQYKKIICMGAKENGLPLEYQEKLKAIEPNDYTGKVSEEIEDIIKKGETQTL
B7: KIF23 (protein, UniProt Q02241 1-960, looked up)
Kinesin-like protein KIF23: MKSARAKTPRKPTVKKGSQTNLKDPVGVYCRVRPLGFPDQECCIEVINNTTVQLHTPEGYRLNRNGDYKETQYSFKQVFGTHTTQKELFDVVANPLVNDLIHGKNGLLFTYGVTGSGKTHTMTGSPGEGGLLPRCLDMIFNSIGSFQAKRYVFKSNDRNSMDIQCEVDALLERQKREAMPNPKTSSSKRQVDPEFADMITVQEFCKAEEVDEDSVYGVFVSYIEIYNNYIYDLLEEVPFDPIKPKPPQSKLLREDKNHNMYVAGCTEVEVKSTEEAFEVFWRGQKKRRIANTHLNRESSRSHSVFNIKLVQAPLDADGDNVLQEKEQITISQLSLVDLAGSERTNRTRAEGNRLREAGNINQSLMTLRTCMDVLRENQMYGTNKMVPYRDSKLTHLFKNYFDGEGKVRMIVCVNPKAEDYEENLQVMRFAEVTQEVEVARPVDKAICGLTPGRRYRNQPRGPVGNEPLVTDVVLQSFPPLPSCEILDINDEQTLPRLIEALEKRHNLRQMMIDEFNKQSNAFKALLQEFDNAVLSKENHMQGKLNEKEKMISGQKLEIERLEKKNKTLEYKIEILEKTTTIYEEDKRNLQQELETQNQKLQRQFSDKRRLEARLQGMVTETTMKWEKECERRVAAKQLEMQNKLWVKDEKLKQLKAIVTEPKTEKPERPSRERDREKVTQRSVSPSPVPLSSNYIAQISNGQQLMSQPQLHRRSNSCSSISVASCISEWEQKIPTYNTPLKVTSIARRRQQEPGQSKTCIVSDRRRGMYWTEGREVVPTFRNEIEIEEDHCGRLLFQPDQNAPPIRLRHRRSRSAGDRWVDHKPASNMQTETVMQPHVPHAITVSVANEKALAKCEKYMLTHQELASDGEIETKLIKGDIYKTRGGGQSVQFTDIETLKQESPNGSRKRRSSTVAPAQPDGAESEWTDVETRCSVAVEMRAGSQLGPGYQHHAQPKRKKP

tested on: BAF complex subunits and histone proteins; test: Mass spectrometry proteomics of purified HA-SS18 WT and HA-SS18-SSX1 complexes (Tables 5A-5E); parameters: species or system human; details: HA-SS18WT_CHR_peptides: protein identified in HA-SS18 WT BAF complex purification from nuclease-treated solubilized chromatin (CHR), HEK-293T

Total (total peptides), 1:
B1, B2, B3, B4, B5, B6, B7

Unique (unique peptides), 1:
B1, B2, B3, B4, B5, B6, B7

same assay, conditions: HA-SS18WT_NE_peptides: proteins co-purified with HA-SS18 WT from nuclear extract (NE), HEK-293T

Total (peptides), 1:
B4

Unique (peptides), 1:
B4
